1 sequence from PMC6557901, “Rif1 S-acylation mediates DNA double-strand break repair at the inner nuclear membrane” can be followed below.

By UniProt entry, the sequences of proteins in these tests, tags left out. Residues count along the entry.
UniProt P29539, 100-1322 K437E/K563E/K570E: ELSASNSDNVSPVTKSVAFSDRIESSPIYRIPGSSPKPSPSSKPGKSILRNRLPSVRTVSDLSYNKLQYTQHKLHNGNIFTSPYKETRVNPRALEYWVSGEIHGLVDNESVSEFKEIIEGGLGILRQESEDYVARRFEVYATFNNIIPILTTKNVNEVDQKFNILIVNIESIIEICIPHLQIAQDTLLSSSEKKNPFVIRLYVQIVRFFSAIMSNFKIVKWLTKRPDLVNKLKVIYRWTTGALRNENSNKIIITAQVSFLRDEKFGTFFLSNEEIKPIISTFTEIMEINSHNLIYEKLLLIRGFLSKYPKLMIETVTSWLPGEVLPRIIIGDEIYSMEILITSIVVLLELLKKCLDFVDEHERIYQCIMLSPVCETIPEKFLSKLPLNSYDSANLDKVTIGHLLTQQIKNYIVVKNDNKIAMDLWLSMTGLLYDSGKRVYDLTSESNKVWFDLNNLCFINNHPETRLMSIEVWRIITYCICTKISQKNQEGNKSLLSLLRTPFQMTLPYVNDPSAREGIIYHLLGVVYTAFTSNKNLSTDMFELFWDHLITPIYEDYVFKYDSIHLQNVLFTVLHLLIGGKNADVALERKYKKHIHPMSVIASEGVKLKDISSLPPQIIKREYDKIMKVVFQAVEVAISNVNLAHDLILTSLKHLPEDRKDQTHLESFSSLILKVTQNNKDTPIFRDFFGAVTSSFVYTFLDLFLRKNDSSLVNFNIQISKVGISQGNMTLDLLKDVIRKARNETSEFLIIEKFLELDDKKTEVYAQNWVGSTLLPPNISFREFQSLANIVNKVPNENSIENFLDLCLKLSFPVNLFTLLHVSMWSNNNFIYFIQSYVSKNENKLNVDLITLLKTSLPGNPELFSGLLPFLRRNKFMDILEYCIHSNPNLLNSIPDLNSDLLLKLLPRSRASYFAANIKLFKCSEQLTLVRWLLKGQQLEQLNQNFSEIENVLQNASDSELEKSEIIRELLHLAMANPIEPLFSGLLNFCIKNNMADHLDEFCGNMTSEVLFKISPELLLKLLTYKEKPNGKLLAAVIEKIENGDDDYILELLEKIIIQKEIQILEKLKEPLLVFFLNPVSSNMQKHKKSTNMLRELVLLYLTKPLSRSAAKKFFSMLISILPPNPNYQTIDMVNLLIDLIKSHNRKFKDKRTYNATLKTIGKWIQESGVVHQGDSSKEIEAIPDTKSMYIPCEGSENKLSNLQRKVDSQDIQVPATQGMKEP

The comparison behind a weaker result is the experiment's own reference, which may not be listed here.

The series has as its target Rif1 NTD (100-1322) HOOK mutant K437E,K563E,K570E (Saccharomyces cerevisiae) (UniProt P29539). Description: EMSA. As to conditions: protein 10-160 nM, DNA 1 nM, impaired, residual binding; 20 mM Tris-HCl pH 8.0, 100 mM NaCl, 2.5 mM MgCl2, 10 mM CaCl2, 0.1 mg/ml BSA, 1 mM TCEP, 30 min at 20 °C; 1.2% agarose gel, 0.5x TBE, 4 °C; recombinant protein; residues 100-1322; protein details: N-terminal Strep(II); label: 5'-32P on EMSA1. (In EMSA bound probe runs differently from free probe, usually more slowly.)

“TAGCAAGGCACTGGTAGAATTCGGCAGCGT (double strand) [30 bp dsDNA (EMSA1/EMSA2)]”: the binding result is “binds more weakly”.
